Target: Trypanothione reductase (Trypanosoma brucei brucei, UniProt P39051)
Assay: Inhibition of recombinant Trypanosoma brucei brucei strain S427 trypanothione reductase assessed as reduction of trypanothione disulphide by 412 nm assay

Amino acid sequences for entries named in this document (tags omitted). A change or cut given only in a name is not applied to a line headed by its entry.
UniProt P39051: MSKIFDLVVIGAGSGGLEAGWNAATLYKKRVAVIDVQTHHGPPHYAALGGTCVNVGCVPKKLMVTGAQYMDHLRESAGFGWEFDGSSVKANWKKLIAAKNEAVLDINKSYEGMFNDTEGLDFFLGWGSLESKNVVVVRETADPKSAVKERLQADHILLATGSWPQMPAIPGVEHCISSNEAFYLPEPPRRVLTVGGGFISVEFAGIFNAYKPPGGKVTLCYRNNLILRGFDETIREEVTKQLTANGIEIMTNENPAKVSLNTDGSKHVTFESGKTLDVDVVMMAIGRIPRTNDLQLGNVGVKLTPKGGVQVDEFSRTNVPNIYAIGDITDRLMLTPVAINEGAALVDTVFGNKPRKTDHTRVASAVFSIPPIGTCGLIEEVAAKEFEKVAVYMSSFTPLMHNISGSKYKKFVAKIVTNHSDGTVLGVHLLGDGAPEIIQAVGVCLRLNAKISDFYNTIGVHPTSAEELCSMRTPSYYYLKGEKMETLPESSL

- IC50: 3.4 µM
SMILES: CN(C)CCCN1c2ccccc2CCc2ccc(Cl)cc21 [CLOMIPRAMINE]

From ChEMBL document CHEMBL3396948, “Dibenzosuberyl substituted polyamines and analogs of clomipramine as effective inhibitors of trypanothione reductase; molecular docking, and assessment of trypanocidal activities” (Bioorg Med Chem, 2015)
